## Results from one PubChem assay

The results are deposited in PubChem (AID1224904; Broad Institute, 2016).

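Selective DUX4 reporter inhibition in doxycycline-induced 293T-iDUX4 cells, scored as Gaussia percent activity minus Italica percent activity, after a 24-hour treatment.
The test concentration is not given here.
Percent difference between the Gaussia and Italica channels; more negative values mean more selective suppression of the DUX4 reporter, and higher values mean less activity.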

Values are in %.
How 0% and 100% were set is not given here.
Common to all entries: measured here: selective DUX4 reporter inhibition.
Part of the compounds only, not a random draw; the main read-out is not listed here.

Compound,Gaussia minus Italica difference (%)
CO[C@H]1CN(C)C(=O)c2cc(NC(=O)Nc3cccc(F)c3)ccc2OC[C@@H](C)N(C(=O)C2CC2)C[C@H]1C,-4.457
N#Cc1ccc(-c2ccc([C@H]3[C@@H](CO)N4CCCCN(C(=O)Cc5ccccc5)C[C@H]34)cc2)cc1,-1.82
Cc1ccccc1-c1ccc(C2[C@@H]3CN(C(=O)Cc4ccncc4)C[C@H]2N3)cc1 (stereo partly specified),-15.84
CO[C@@H](C(=O)N(C)C[C@@H]1OCc2ccccc2-c2c(n(C)c3ccccc23)C(=O)N([C@@H](C)CO)C[C@@H]1C)c1ccccc1,-13.53
N#C[C@H]1[C@@H](c2ccccc2C2=CCCCC2)[C@H](CO)N1S(=O)(=O)c1ccccc1,-11.69
CO[C@@H]1CN(C)C(=O)c2cc(NS(=O)(=O)c3ccccc3C)ccc2OC[C@@H](C)N(S(=O)(=O)c2ccccc2)C[C@H]1C,-10.65
COCC(=O)N1C[C@@H](C)[C@H](OC)CN(C)C(=O)c2ccc(NC(=O)c3ccc(-c4ccccc4)cc3)cc2OC[C@H]1C,-10.91
Cc1cccc(-c2ccc([C@H]3[C@H]4CN(C(=O)c5ccc6c(c5)OCO6)CC(=O)N4[C@H]3CO)cc2)c1,-9.249
O=C(Nc1ccc(Cl)cc1)N[C@H]1CC[C@@H](CCn2cc(-c3ccccc3F)nn2)O[C@@H]1CO,13.87
CCS(=O)(=O)N1CCC2(CC1)CN(S(=O)(=O)c1cccc(OC)c1)[C@H](CO)c1[nH]c3cc(OC)ccc3c12,-9.074
O=C(C1CCCC1)N1[C@H](CO)[C@H](c2ccccc2)C12CN(CCC(F)(F)F)C2,-12.92
CC(C)CC#Cc1ccc([C@@H]2[C@@H](CO)N3C(=O)CN(S(C)(=O)=O)C[C@@H]23)cc1,-5.078
O=S(=O)(c1ccc(F)cc1)N1CCCCN2[C@H](CO)[C@H](c3ccc(C#CC4CC4)cc3)[C@H]2C1,-15.55
O=C(C[C@@H]1CC[C@H]2[C@@H](COC[C@H](O)CN2Cc2cc(F)ccc2F)O1)NCc1ccc(Oc2ccccc2)cc1,-17.35
COc1ccc2c3c([nH]c2c1)[C@H](CO)N(C(=O)NC(C)C)CC31CN(Cc2ccc(F)cc2)C1,-6.672
O=C(C[C@H]1CC[C@H](NS(=O)(=O)c2ccccc2)[C@H](CO)O1)NCc1ccc(Cl)c(Cl)c1,0.6583
N#C[C@H]1[C@@H](c2ccccc2/C=C/c2ccccc2)[C@@H](CO)N1S(=O)(=O)c1ccccc1,19.99
COc1ccc(NC(=O)N(C)C[C@H]2OCc3ccccc3-c3c(n(C)c4ccccc34)C(=O)N([C@@H](C)CO)C[C@H]2C)c(OC)c1,-8.555
COc1ccc2c3c([nH]c2c1)[C@@H](CO)N(C(C)=O)CC31CN(Cc2ccccc2Cl)C1,-7.166
COc1cccc(-c2ccc([C@H]3[C@@H](CO)N4CCCCN(C(=O)Cc5ccncc5)C[C@H]34)cc2)c1,-11.83
O=C(C[C@H]1CC[C@H]2[C@@H](COC[C@H](O)CN2Cc2ccc(Oc3ccccc3)cc2)O1)N1CCN(c2ccccc2)CC1,-11.2
COc1ccc2c3c([nH]c2c1)[C@@H](CO)N(Cc1ccccc1F)CC31CCN(C(=O)C2CC2)CC1,-7.001
COc1ccc(-c2ccc3c(c2)[C@H]2[C@H](CCN2C(=O)c2cccc(F)c2)[C@@H](CO)N3)cc1,9.332
COc1ccc(S(=O)(=O)N2CCCCN3[C@H](CO)[C@H](c4ccc(C5=CCCC5)cc4)[C@@H]3C2)cc1,-4.283
COc1cccc(S(=O)(=O)N(C)C[C@@H]2OCc3ccccc3-c3c(n(C)c4ccccc34)C(=O)N([C@@H](C)CO)C[C@H]2C)c1,-2.516
CN1c2ccc(-c3ccc(F)cc3)cc2[C@H]2[C@H](CCN2C(=O)c2ccncc2)[C@@H]1CO,5.15
COc1ccc(S(=O)(=O)N[C@H]2CC[C@H](CCn3cc(-c4ccccc4F)nn3)O[C@@H]2CO)cc1,-9.843
COc1ccc(NC(=O)N2CCC3(CC2)CN(CC2CC2)[C@H](CO)c2c3c3ccc(OC)cc3n2C)cc1,-19.29
O=C(Nc1ccc2c(c1)[C@H]1C[C@@H](CC(=O)N3CCc4ccccc4C3)O[C@H](CO)[C@H]1O2)c1ccc2c(c1)OCO2,2.263
O=C(C[C@H]1CC[C@@H]2[C@H](COC[C@@H](O)CN2C(=O)Nc2ccc(Cl)c(Cl)c2)O1)NCc1ccc(F)cc1,-9.942
Cc1ccccc1S(=O)(=O)N1CCCCN2[C@H](C1)[C@H](c1ccc(C#CCN(C)C)cc1)[C@@H]2CO,-16.75
COc1ccc2c3c(n(C)c2c1)[C@H](CO)N(Cc1cccc(Cl)c1)CC31CN(C(C)=O)C1,-0.9922
CN(C)c1ccc2c(c1)[C@@H]1C[C@@H](CC(=O)NCc3ccc(-c4ccccc4)cc3)O[C@@H](CO)[C@@H]1O2,28.01
C[C@H](CO)N1C[C@H](C)[C@@H](CN(C)S(=O)(=O)c2ccccc2F)OCc2ccccc2-c2ccccc2C1=O,1.019
O=C(C1CCC1)N1CC[C@@H]2[C@H](CO)Nc3ccc(C#Cc4cccc(F)c4)cc3[C@@H]21,-8.242
COc1ccc(C#Cc2ccc([C@@H]3[C@@H](CO)N4CCCCN(C(=O)Cc5ccccc5)C[C@@H]34)cc2)cc1,-20.86
CN1c2ccc(-c3ccccc3)cc2[C@@H]2[C@@H](CCN2C(=O)c2ccc3c(c2)OCO3)[C@H]1CO,1.036
Cc1cccc(-c2ccc(C3[C@@H]4CN(Cc5cccc(F)c5)C[C@H]3N4)cc2)c1 (stereo partly specified),-0.2139
C[C@@H]1CN([C@@H](C)CO)C(=O)c2c(c3ccccc3n2C)-c2ccccc2CO[C@@H]1CN(C)Cc1ccc(F)cc1,-10.17
O=C(c1ccncc1)N1CC[C@@H]2[C@H]1c1cc(Br)ccc1N[C@@H]2CO,-12.65
COc1ccc2c3c([nH]c2c1)[C@@H](CO)N(C(=O)CN(C)C)CC31CCN(Cc2ccccc2Cl)CC1,16.32
OC[C@H]1[C@H](c2ccc(-c3ccc(F)cc3)cc2)[C@H]2CN(CCC(F)(F)F)CCCCN21,-24.32
O=C(C[C@@H]1CC[C@H]2[C@@H](COC[C@H](O)CN2Cc2cccc(C(F)(F)F)c2)O1)NCCc1ccccc1,-11.15
COc1ccc2c3c(n(C)c2c1)[C@H](CO)N(Cc1ccc(Cl)cc1)CC31CCN(CC2CC2)CC1,-9.366
O=C(C[C@H]1CC[C@H]2[C@@H](COC[C@@H](O)CN2CC2CCCCC2)O1)NCc1ccc(F)cc1,-10.42
C[C@@H]1CN([C@H](C)CO)C(=O)CCCn2cc(nn2)CO[C@@H]1CN(C)Cc1ccc2c(c1)OCCN2C,-16.38
CC(C)CC#Cc1ccc([C@H]2[C@H]3CN(S(=O)(=O)c4cccc(F)c4)CC(=O)N3[C@H]2CO)cc1,-11
Cc1ccccc1S(=O)(=O)N1CC[C@@H]2[C@H]1c1cc(-c3cccc(C#N)c3)ccc1N(C)[C@H]2CO,12.73

4 of the entries, repeated:

| Compound | Gaussia minus Italica difference (%) |
|---|---|
| `O=C(C[C@H]1CC[C@H]2[C@@H](COC[C@H](O)CN2Cc2ccc(Oc3ccccc3)cc2)O1)N1CCN(c2ccccc2)CC1` | -11.2 |
| `C[C@@H]1CN([C@@H](C)CO)C(=O)c2c(c3ccccc3n2C)-c2ccccc2CO[C@@H]1CN(C)Cc1ccc(F)cc1` | -10.17 |
| `CO[C@@H](C(=O)N(C)C[C@@H]1OCc2ccccc2-c2c(n(C)c3ccccc23)C(=O)N([C@@H](C)CO)C[C@@H]1C)c1ccccc1` | -13.53 |
| `COc1ccc(-c2ccc3c(c2)[C@H]2[C@H](CCN2C(=O)c2cccc(F)c2)[C@@H](CO)N3)cc1` | 9.332 |